Square brackets hold non-standard residues; d marks the D form. pGlu = O=C1CC[C@@H](C(=O)O)N1
Key:
[1] = general procedure: Fmoc solid-phase peptide synthesis; CTC; HBTU/HOBT, DIPEA; conditions: whole synthesis, scale of the general procedure CTC resin (125 gr), sodium salt (ZEP3Na, ZEP4Na)
[2] = general procedure: Fmoc solid-phase peptide synthesis; chlorotrityl chloride resin (CTC); HBTU/HOBT, DIPEA; conditions: purification step, sodium salt

| Substance | final HPLC purity [1] [%] | final HPLC purity [2] [%] | step yield [2] [%] |
| --- | --- | --- | --- |
| [pGlu]NWT-OH | 97.3 |  |  |
| pGlu-Asn-Trp-Thr-ONa |  | 97.5 | 80 |
| pGlu-Asn-Trp-Lys(Octanoyl)-ONa |  | 99.7 | 71 |

— patent US20240252581A1 (S.I.S. SHULOV INNOVATIVE SCIENCE LTD., priority 2021, published 2024)
